# Experimental data from the supplement of paper PMC4604168 (melanoma cell lines).
# The other results are listed elsewhere or left out. Many values rest on one well or one pass, so single values are uncertain.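 The apoptosis fraction was the count of cleaved-PARP antibody-stained nuclei relative to all DNA-stained nuclei, imaged in 1,536-well plates. Screening doses were set so most cells survived, and baseline and induced cleaved-PARP levels vary greatly across cell lines.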
# Key:
# Test in all cases: cleaved PARP positive nuclei fraction relative to DMSO control; melanoma cells; higher = more apoptosis
# Conditions in all cases: library dose: low library concentration; 72 h
# MeWo = tested on: MeWo
# RPMI7951 = tested on: RPMI7951
# RVH-421 = tested on: RVH-421
# SkMel28 = tested on: SkMel28
# SkMel30 = tested on: SkMel30
# UACC62 = tested on: UACC62
# WM115 = tested on: WM115
# WM1716 = tested on: WM1716
# WM1745 = tested on: WM1745
# WM3526 = tested on: WM3526
# WM3619 = tested on: WM3619
# WM451Lu = tested on: WM451Lu
# SkMel5 = tested on: SkMel5
# UACC257 = tested on: UACC257
# SkMel2 = tested on: SkMel2
SMILES,cleaved PARP positive nuclei fraction (MeWo),cleaved PARP positive nuclei fraction (RPMI7951),cleaved PARP positive nuclei fraction (RVH-421),cleaved PARP positive nuclei fraction (SkMel28),cleaved PARP positive nuclei fraction (SkMel30),cleaved PARP positive nuclei fraction (UACC62),cleaved PARP positive nuclei fraction (WM115),cleaved PARP positive nuclei fraction (WM1716),cleaved PARP positive nuclei fraction (WM1745),cleaved PARP positive nuclei fraction (WM3526),cleaved PARP positive nuclei fraction (WM3619),cleaved PARP positive nuclei fraction (WM451Lu),cleaved PARP positive nuclei fraction (SkMel5),cleaved PARP positive nuclei fraction (UACC257),cleaved PARP positive nuclei fraction (SkMel2)
"CC1(C)CCC(c2ccc(Cl)cc2)=C(CN2CCN(c3ccc(C(=O)NS(=O)(=O)c4ccc(N[C@H](CCN5CCOCC5)CSc5ccccc5)c(S(=O)(=O)C(F)(F)F)c4)cc3)CC2)C1 + Cn1nnc2c(C(N)=O)ncn2c1=O [temozolomide] (first compound 0.4 µM, partner dose 2 µM)",386%,288%,267%,82.9%,261%,183%,287%,146%,986%,87.1%,121%,109%,,,
"Cn1sc(=O)n(Cc2ccccc2)c1=O + NCC(=O)Nc1ccc(-n2nc(C(F)(F)F)cc2-c2ccc3c(ccc4ccccc43)c2)cc1 [OSU03012] (first compound 0.4 µM, partner dose 1 µM)",54.3%,94.5%,71.5%,99.4%,124%,336%,650%,98.7%,95.9%,432%,91.5%,140%,40.1%,175%,
"Cn1sc(=O)n(Cc2ccccc2)c1=O + Nc1ccn([C@@H]2O[C@H](CO)[C@@H](O)C2(F)F)c(=O)n1 [gemcitabine] (first compound 0.4 µM, partner dose 0.0004 µM)",56.6%,142%,155%,71%,75.6%,45.4%,129%,45.9%,121%,318%,122%,95.8%,,,119%
"CN(c1ncccc1CNc1nc(Nc2ccc3c(c2)CC(=O)N3)ncc1C(F)(F)F)S(C)(=O)=O + CC(=O)c1c(C)c2cnc(Nc3ccc(N4CCNCC4)cn3)nc2n(C2CCCC2)c1=O [palbociclib] (first compound 0.08 µM, partner dose 0.04 µM)",139%,81.6%,114%,55.4%,53.5%,116%,73.5%,55%,132%,109%,105%,126%,,,
"CCN(CC)CCNC(=O)c1c(C)[nH]c(/C=C2\C(=O)Nc3ccc(F)cc32)c1C [sunitinib] + CS(=O)(=O)CCNCc1ccc(-c2ccc3ncnc(Nc4ccc(OCc5cccc(F)c5)c(Cl)c4)c3c2)o1 [lapatinib] (first compound 0.4 µM, partner dose 0.8 µM)",168%,209%,30.1%,44.3%,107%,181%,77.3%,54.8%,100%,192%,66.1%,448%,,,
"CCCCCCCCc1ccc(CCC(N)(CO)CO)cc1 [fingolimod] + O=c1cc(-c2cccc3c2Sc2ccccc2S3)oc(N2CCOCC2)c1 [KU55933] (first compound 2 µM, partner dose 1 µM)",30.9%,144%,30.4%,414%,136%,183%,69%,61.4%,108%,73.2%,93%,174%,69.5%,47.8%,
"C[C@@H](N)c1ccc(C(=O)Nc2ccnc3[nH]ccc23)cc1 + Cn1nnc2c(C(N)=O)ncn2c1=O [temozolomide] (first compound 0.4 µM, partner dose 2 µM)",285%,69.9%,261%,115%,108%,56.3%,145%,56.2%,128%,34.2%,103%,59.2%,,,67.4%
"CC(=O)O[C@@]12CO[C@@H]1C[C@H](O)[C@@]1(C)C(=O)[C@H](O)C3=C(C)[C@@H](OC(=O)[C@H](O)[C@@H](NC(=O)OC(C)(C)C)c4ccccc4)C[C@@](O)([C@@H](OC(=O)c4ccccc4)[C@H]21)C3(C)C [Docetaxel] + O=C(O)c1ccc2c(c1)nc(Nc1cccc(Cl)c1)c1ccncc12 [CX4945] (first compound 0.0001 µM, partner dose 0.4 µM)",974%,181%,190%,335%,726%,1240%,776%,796%,147%,181%,146%,50.7%,,,304%
"CC1(C)CCC(c2ccc(Cl)cc2)=C(CN2CCN(c3ccc(C(=O)NS(=O)(=O)c4ccc(N[C@H](CCN5CCOCC5)CSc5ccccc5)c(S(=O)(=O)C(F)(F)F)c4)cc3)CC2)C1 + C=CCNC1=C2C[C@@H](C)C[C@H](OC)[C@H](O)[C@@H](C)/C=C(\C)[C@H](OC(N)=O)[C@@H](OC)/C=C\C=C(/C)C(=O)NC(=CC1=O)C2=O [Tanespimycin] (first compound 0.4 µM, partner dose 0.002 µM)",345%,242%,69.6%,199%,280%,40%,390%,140%,846%,59.6%,320%,109%,,,175%
"CC1(C)CCC(c2ccc(Cl)cc2)=C(CN2CCN(c3ccc(C(=O)NS(=O)(=O)c4ccc(N[C@H](CCN5CCOCC5)CSc5ccccc5)c(S(=O)(=O)C(F)(F)F)c4)cc3)CC2)C1 + Nc1cccc2c1CN(C1CCC(=O)NC1=O)C2=O [lenalidomide] (first compound 0.4 µM, partner dose 1 µM)",171%,95.7%,201%,38.9%,93.9%,211%,123%,578%,667%,93.5%,115%,95.7%,,,
"C[C@@H](N)c1ccc(C(=O)Nc2ccnc3[nH]ccc23)cc1 + CCN(CC)CCNC(=O)c1c(C)[nH]c(/C=C2\C(=O)Nc3ccc(F)cc32)c1C [sunitinib] (first compound 0.4 µM, partner dose 0.4 µM)",113%,238%,99.9%,88.4%,75.7%,133%,78.6%,53.8%,279%,48.6%,62.6%,90.4%,,,175%
"CC1(C)CCC(c2ccc(Cl)cc2)=C(CN2CCN(c3ccc(C(=O)NS(=O)(=O)c4ccc(N[C@H](CCN5CCOCC5)CSc5ccccc5)c(S(=O)(=O)C(F)(F)F)c4)cc3)CC2)C1 + Cn1cnc2c(F)c(Nc3ccc(Br)cc3Cl)c(C(=O)NOCCO)cc21 [selumetinib] (first compound 0.4 µM, partner dose 0.015 µM)",741%,149%,142%,60%,238%,109%,799%,110%,643%,50.2%,117%,63.2%,,,
"Cn1cnc2c(F)c(Nc3ccc(Br)cc3Cl)c(C(=O)NOCCO)cc21 [selumetinib] + C=C(c1ccc(C(=O)O)cc1)c1cc2c(cc1C)C(C)(C)CCC2(C)C [Bexarotene] (first compound 0.015 µM, partner dose 2 µM)",126%,47.3%,272%,53.6%,39.6%,328%,144%,69.9%,108%,535%,121%,110%,,,

# An excerpt from above, showing only cleaved PARP positive nuclei fraction (SkMel28).
SMILES	cleaved PARP positive nuclei fraction (SkMel28)
CC(=O)O[C@@]12CO[C@@H]1C[C@H](O)[C@@]1(C)C(=O)[C@H](O)C3=C(C)[C@@H](OC(=O)[C@H](O)[C@@H](NC(=O)OC(C)(C)C)c4ccccc4)C[C@@](O)([C@@H](OC(=O)c4ccccc4)[C@H]21)C3(C)C [Docetaxel] + O=C(O)c1ccc2c(c1)nc(Nc1cccc(Cl)c1)c1ccncc12 [CX4945] (first compound 0.0001 µM, partner dose 0.4 µM)	335%
CC1(C)CCC(c2ccc(Cl)cc2)=C(CN2CCN(c3ccc(C(=O)NS(=O)(=O)c4ccc(N[C@H](CCN5CCOCC5)CSc5ccccc5)c(S(=O)(=O)C(F)(F)F)c4)cc3)CC2)C1 + C=CCNC1=C2C[C@@H](C)C[C@H](OC)[C@H](O)[C@@H](C)/C=C(\C)[C@H](OC(N)=O)[C@@H](OC)/C=C\C=C(/C)C(=O)NC(=CC1=O)C2=O [Tanespimycin] (first compound 0.4 µM, partner dose 0.002 µM)	199%
